The supplement of paper PMC10849652
The other results are listed elsewhere or left out.

Sequences of proteins named here, by UniProt entry; tags and fusion partners are left off. A change or cut given only in a name is not applied to a line headed by its entry.
UniProt P63092, whole entry, looked up: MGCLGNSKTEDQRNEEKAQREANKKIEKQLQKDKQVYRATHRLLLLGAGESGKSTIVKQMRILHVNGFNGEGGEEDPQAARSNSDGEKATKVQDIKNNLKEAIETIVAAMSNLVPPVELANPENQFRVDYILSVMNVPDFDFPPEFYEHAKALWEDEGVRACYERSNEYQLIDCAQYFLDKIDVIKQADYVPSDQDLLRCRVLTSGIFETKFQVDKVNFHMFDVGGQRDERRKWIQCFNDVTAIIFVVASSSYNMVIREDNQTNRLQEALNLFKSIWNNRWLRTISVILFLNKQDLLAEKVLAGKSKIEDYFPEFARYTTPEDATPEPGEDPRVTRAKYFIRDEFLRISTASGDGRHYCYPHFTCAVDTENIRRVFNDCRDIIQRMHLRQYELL
UniProt Q9NWQ4: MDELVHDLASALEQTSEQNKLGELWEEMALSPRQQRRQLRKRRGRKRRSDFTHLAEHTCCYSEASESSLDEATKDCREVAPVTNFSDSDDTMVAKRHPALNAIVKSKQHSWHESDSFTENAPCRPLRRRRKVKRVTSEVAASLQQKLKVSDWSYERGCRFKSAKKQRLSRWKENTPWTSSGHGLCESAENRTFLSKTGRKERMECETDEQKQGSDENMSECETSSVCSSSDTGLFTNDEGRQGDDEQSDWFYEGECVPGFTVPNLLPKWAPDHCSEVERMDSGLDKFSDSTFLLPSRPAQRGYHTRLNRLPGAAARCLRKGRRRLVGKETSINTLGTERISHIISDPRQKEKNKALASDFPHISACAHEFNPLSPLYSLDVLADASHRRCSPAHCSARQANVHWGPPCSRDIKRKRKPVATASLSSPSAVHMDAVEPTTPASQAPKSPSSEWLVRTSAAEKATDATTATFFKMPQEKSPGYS
UniProt Q9BVM4: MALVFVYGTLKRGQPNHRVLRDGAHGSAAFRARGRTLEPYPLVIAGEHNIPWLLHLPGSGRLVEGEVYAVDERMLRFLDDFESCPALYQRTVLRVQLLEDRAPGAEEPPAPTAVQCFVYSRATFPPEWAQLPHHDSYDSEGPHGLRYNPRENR
UniProt Q9Y692: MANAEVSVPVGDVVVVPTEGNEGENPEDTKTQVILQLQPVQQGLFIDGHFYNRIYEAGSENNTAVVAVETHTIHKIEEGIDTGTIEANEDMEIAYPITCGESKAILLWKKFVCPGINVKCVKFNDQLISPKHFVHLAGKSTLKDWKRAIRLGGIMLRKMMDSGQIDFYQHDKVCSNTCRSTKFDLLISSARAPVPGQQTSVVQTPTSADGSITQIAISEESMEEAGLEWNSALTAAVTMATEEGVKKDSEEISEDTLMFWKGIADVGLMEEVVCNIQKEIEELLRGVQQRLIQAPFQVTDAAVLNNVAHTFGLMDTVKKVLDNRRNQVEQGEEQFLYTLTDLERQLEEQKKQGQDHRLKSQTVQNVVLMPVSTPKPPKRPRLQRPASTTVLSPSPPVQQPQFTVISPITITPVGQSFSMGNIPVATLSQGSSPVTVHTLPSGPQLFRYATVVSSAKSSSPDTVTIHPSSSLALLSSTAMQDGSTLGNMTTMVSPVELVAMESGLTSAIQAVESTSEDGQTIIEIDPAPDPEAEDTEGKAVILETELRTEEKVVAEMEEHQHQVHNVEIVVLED
UniProt Q8WWB7: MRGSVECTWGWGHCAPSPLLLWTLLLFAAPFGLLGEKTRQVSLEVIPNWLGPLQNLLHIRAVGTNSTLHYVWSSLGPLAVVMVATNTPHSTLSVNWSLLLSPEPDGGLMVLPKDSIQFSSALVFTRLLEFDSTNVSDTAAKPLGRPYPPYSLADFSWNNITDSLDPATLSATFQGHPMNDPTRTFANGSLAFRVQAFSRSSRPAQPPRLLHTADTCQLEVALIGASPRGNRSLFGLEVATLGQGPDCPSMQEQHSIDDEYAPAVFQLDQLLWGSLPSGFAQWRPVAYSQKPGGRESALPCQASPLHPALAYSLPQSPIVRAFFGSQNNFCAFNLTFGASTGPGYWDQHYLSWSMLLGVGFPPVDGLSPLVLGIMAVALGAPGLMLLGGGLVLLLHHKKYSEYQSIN
UniProt Q9UBI6: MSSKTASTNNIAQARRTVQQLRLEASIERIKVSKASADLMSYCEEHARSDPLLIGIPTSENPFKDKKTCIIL
UniProt Q9HCN4, whole entry, looked up: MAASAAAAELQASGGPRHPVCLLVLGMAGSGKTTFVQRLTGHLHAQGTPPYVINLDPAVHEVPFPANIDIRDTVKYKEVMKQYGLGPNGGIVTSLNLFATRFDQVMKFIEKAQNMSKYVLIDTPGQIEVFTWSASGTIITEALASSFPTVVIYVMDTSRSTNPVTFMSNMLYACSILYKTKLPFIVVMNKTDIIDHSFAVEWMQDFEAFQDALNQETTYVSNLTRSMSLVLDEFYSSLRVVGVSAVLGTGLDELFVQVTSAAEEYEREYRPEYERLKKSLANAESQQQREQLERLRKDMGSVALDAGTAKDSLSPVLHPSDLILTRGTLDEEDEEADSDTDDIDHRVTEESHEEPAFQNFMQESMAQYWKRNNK
UniProt Q86V85: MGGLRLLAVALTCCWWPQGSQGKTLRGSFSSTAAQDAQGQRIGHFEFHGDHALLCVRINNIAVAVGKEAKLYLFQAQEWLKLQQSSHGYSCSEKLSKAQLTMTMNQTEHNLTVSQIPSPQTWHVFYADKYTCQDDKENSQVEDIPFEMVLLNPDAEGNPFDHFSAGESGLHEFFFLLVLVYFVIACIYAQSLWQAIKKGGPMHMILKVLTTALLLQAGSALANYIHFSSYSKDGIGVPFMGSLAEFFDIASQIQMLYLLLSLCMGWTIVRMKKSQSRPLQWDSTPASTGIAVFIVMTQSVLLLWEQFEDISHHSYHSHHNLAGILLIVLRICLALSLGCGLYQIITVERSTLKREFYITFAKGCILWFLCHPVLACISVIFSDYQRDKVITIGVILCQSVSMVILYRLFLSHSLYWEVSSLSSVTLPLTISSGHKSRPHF
UniProt Q9NQ84: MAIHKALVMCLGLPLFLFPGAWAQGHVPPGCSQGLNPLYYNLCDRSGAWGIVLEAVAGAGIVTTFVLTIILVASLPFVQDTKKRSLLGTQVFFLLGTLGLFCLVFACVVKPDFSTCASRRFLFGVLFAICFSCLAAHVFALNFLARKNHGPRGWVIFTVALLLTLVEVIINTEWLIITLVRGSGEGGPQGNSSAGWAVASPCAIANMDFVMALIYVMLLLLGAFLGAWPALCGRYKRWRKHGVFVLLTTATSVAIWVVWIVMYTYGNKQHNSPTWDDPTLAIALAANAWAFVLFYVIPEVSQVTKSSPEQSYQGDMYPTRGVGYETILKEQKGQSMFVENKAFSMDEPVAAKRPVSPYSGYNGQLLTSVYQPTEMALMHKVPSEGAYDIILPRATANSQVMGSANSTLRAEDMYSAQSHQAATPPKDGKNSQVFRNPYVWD
UniProt Q9NZD2: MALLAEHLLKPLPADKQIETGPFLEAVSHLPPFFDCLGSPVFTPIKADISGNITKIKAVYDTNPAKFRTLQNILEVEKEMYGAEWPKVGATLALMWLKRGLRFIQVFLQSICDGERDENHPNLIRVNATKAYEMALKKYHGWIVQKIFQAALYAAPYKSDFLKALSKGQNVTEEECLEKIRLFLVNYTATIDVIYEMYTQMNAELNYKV
UniProt Q5JWF2, whole entry, looked up: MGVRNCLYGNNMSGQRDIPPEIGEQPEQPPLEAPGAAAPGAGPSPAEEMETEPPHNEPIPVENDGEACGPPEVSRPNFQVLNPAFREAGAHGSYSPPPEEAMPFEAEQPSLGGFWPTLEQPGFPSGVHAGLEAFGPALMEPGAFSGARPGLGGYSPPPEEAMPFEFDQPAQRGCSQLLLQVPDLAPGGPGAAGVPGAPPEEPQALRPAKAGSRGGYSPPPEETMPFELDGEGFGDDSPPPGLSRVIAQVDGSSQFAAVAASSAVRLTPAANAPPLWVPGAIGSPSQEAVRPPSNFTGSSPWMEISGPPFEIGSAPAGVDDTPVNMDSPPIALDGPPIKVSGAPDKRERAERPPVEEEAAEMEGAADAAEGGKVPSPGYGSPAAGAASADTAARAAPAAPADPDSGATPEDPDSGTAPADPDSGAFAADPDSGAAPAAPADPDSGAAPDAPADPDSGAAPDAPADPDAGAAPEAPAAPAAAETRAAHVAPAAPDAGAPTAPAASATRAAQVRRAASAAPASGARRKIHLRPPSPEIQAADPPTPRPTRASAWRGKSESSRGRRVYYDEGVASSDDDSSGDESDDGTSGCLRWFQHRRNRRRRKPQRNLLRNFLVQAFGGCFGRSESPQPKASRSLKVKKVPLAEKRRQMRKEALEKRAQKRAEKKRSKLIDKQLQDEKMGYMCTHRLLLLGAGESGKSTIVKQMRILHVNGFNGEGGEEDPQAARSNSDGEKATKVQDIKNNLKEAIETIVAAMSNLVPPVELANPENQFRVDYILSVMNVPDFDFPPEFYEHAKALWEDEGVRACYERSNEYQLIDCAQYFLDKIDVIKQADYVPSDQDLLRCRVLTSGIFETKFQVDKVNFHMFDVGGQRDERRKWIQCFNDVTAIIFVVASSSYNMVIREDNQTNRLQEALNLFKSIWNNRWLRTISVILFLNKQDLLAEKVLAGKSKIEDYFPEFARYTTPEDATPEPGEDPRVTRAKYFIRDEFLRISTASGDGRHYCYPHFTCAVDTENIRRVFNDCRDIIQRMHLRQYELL
UniProt Q9HAV0, whole entry, looked up: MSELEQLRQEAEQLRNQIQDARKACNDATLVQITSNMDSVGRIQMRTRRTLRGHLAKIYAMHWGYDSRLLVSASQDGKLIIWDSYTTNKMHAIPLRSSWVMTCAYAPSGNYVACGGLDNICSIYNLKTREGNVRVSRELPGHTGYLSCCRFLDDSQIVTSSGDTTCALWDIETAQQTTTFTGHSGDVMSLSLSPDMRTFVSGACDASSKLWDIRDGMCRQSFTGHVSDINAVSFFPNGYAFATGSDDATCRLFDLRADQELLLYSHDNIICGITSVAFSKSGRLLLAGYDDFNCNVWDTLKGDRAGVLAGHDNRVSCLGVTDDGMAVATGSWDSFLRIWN
UniProt Q03113, whole entry, looked up: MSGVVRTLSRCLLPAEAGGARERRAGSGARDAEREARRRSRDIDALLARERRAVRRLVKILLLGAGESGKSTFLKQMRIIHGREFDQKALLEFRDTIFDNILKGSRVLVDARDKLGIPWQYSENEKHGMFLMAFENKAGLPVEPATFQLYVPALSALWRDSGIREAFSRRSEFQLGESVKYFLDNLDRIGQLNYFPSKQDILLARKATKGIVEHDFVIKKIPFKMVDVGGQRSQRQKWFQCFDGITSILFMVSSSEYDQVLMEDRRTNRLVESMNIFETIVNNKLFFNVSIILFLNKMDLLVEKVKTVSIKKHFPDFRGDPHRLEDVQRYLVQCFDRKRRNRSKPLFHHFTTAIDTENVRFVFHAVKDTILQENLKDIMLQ
UniProt P23378: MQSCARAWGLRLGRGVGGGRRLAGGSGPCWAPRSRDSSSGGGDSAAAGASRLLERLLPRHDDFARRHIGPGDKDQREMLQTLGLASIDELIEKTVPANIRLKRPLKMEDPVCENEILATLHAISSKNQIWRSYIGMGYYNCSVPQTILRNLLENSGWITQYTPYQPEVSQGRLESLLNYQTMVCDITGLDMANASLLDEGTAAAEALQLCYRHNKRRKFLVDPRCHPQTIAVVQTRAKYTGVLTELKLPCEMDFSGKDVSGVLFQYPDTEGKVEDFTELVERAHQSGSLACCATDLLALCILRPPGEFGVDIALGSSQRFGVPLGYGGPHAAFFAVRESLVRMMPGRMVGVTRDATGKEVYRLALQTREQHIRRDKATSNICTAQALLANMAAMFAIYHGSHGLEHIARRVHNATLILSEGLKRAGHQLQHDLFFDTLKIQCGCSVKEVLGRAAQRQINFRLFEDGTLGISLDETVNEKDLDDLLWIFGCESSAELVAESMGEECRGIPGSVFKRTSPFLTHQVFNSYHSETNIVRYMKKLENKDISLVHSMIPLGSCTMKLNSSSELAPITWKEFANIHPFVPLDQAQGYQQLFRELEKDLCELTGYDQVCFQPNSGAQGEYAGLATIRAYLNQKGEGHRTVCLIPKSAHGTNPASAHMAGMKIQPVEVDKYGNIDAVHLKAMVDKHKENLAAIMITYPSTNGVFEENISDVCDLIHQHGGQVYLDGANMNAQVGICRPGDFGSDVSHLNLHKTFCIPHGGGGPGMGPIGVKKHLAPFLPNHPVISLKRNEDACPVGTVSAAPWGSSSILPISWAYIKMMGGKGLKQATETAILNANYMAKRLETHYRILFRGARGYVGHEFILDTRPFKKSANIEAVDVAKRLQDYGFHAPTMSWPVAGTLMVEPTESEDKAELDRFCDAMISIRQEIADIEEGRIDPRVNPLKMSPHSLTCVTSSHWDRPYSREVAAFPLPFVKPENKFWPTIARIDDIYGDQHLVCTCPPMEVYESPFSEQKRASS

How the values were obtained:
Test in all cases: log2 fold change, soluble protein after heating vs DMSO (PISA); higher = thermal stabilisation; K562 lysate, 10 uM; active = over 0.2 and 3.5 SD of the protein, either way, in both replicates (recomputed)
alvocidib = compound: CN1CC[C@H](c2c(O)cc(O)c3c(=O)cc(-c4ccccc4Cl)oc23)[C@H](O)C1 [alvocidib]
Method in brief: (§1)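 A 30 min treatment with 10 μM compound was applied to crude K562 extract at 1 mg/mL protein in PBS pH 7.4 with 1 mM MgCl2. Heating for 3 min spanned 48°C-58°C, after which aliquots were pooled, adjusted to 0.5% NP-40 at 4°C and spun at 21,000xg for 90 min. TMTpro 16plex LC-MS/MS of the supernatant, with channel sums equalised, gave values recorded as log-two fold change in thermal stability against solvent controls, from duplicates.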

Tubastatin A = compound: CN1CCc2c(c3ccccc3n2Cc2ccc(C(=O)NO)cc2)C1 [Tubastatin A]
Method in brief: as §1

[1] = compound: CNC(=O)C1=CC=CC=C1NC2=NC(=NC=C2Cl)NC3=C(C=C(C=C3)N4CCOCC4)OC
Method in brief: as §1

defactinib = compound: CNC(=O)c1ccc(Nc2ncc(C(F)(F)F)c(NCc3nccnc3N(C)S(C)(=O)=O)n2)cc1 [defactinib]
Method in brief: as §1

[2] = compound: CNc1nc(-c2ccc3c(N)n[nH]c3c2)cc(N2C[C@@H](C(=O)NC3CCCCC3)CC[C@H]2C)n1
Method in brief: as §1

encorafenib = compound: COC(=O)N[C@@H](C)CNc1nccc(-c2cn(C(C)C)nc2-c2cc(Cl)cc(NS(C)(=O)=O)c2F)n1 [encorafenib]
Method in brief: as §1

[3] = compound: COC(=O)[C@H](CCSC)NC(=O)C1=C(C=C(C=C1)NC[C@H](CS)N)C2=CC=CC=C2
Method in brief: as §1

alisertib = compound: COc1cc(Nc2ncc3c(n2)-c2ccc(Cl)cc2C(c2c(F)cccc2OC)=NC3)ccc1C(=O)O [alisertib]
Method in brief: as §1

[4] = compound: COc1cc2nc(-c3cc(F)ccc3O)nc(N[C@@H]3CNC[C@H]3C(C)(C)O)c2cc1OC
Method in brief: as §1

gefitinib = compound: COc1cc2ncnc(Nc3ccc(F)c(Cl)c3)c2cc1OCCCN1CCOCC1 [gefitinib]
Method in brief: as §1

lapatinib = compound: CS(=O)(=O)CCNCc1ccc(-c2ccc3ncnc(Nc4ccc(OCc5cccc(F)c5)c(Cl)c4)c3c2)o1 [lapatinib]
Method in brief: as §1

crizotinib = compound: C[C@@H](Oc1cc(-c2cnn(C3CCNCC3)c2)cnc1N)c1c(Cl)ccc(F)c1Cl [crizotinib]
Method in brief: as §1

[5] = compound: C[C@H](C1=CC=C(C=C1)C(=O)NC2=C3C=CNC3=NC=C2)N
Method in brief: as §1

duvelisib = compound: C[C@H](Nc1ncnc2nc[nH]c12)c1cc2cccc(Cl)c2c(=O)n1-c1ccccc1 [duvelisib]
Method in brief: as §1

gandotinib = compound: Cc1cc(Nc2cc(CN3CCOCC3)c3nc(C)c(Cc4ccc(Cl)cc4F)n3n2)n[nH]1 [gandotinib]
Method in brief: as §1

tozasertib = compound: Cc1cc(Nc2cc(N3CCN(C)CC3)nc(Sc3ccc(NC(=O)C4CC4)cc3)n2)n[nH]1 [tozasertib]
Method in brief: as §1

doramapimod = compound: Cc1ccc(-n2nc(C(C)(C)C)cc2NC(=O)Nc2ccc(OCCN3CCOCC3)c3ccccc23)cc1 [doramapimod]
Method in brief: as §1

[6] = compound: Cc1cccc(CC(=O)N2CCc3c2ccc(-c2cn(C)c4ncnc(N)c24)c3F)n1
Method in brief: as §1

pictilisib = compound: CS(=O)(=O)N1CCN(Cc2cc3nc(-c4cccc5[nH]ncc45)nc(N4CCOCC4)c3s2)CC1 [pictilisib]
Method in brief: as §1

bafetinib = compound: Cc1ccc(NC(=O)c2ccc(CN3CC[C@H](N(C)C)C3)c(C(F)(F)F)c2)cc1Nc1nccc(-c2cncnc2)n1 [bafetinib]
Method in brief: as §1

| Target | log2 fold change (alvocidib) | log2 fold change (Tubastatin A) | log2 fold change [1] | log2 fold change (defactinib) | log2 fold change [2] | log2 fold change (encorafenib) | log2 fold change [3] | log2 fold change (alisertib) | log2 fold change [4] | log2 fold change (gefitinib) | log2 fold change (lapatinib) | log2 fold change (crizotinib) | log2 fold change [5] | log2 fold change (duvelisib) | log2 fold change (gandotinib) | log2 fold change (tozasertib) | log2 fold change (doramapimod) | log2 fold change [6] | log2 fold change (pictilisib) | log2 fold change (bafetinib) |
| --- | --- | --- | --- | --- | --- | --- | --- | --- | --- | --- | --- | --- | --- | --- | --- | --- | --- | --- | --- | --- |
| GPN2 (UniProt Q9H9Y4) | inactive: -0.034 | inactive: -0.027 | inactive: -0.004 | inactive: 0.112 | inactive: -0.007 | inactive: 0.19 | inactive: -0.038 | inactive: 0.008 | inactive: -0.038 | inactive: -0.001 | inactive: 0.041 | inactive: 0.007 | inactive: -0.035 | inactive: 0.126 | inactive: 0.068 | inactive: 0.015 | inactive: -0.005 | inactive: 0.106 |  |  |
| GNAS isoform 3 (UniProt P63092) | inactive: -0.015 |  | inactive: 0.008 |  |  |  |  |  | inactive: -0.027 |  | inactive: -0.017 | inactive: -0.11 | inactive: -0.058 |  | inactive: 0.023 |  | inactive: 0 | inactive: -0.035 |  |  |
| GPATCH2L (UniProt Q9NWQ4) |  | inactive: -0.127 |  |  | inactive: 0.16 | inactive: 0.007 | inactive: 0.142 |  |  |  |  | inactive: 0.038 |  | inactive: 0.052 |  | inactive: -0.092 | inactive: 0.131 |  |  |  |
| GOLGB1 isoform 4 (UniProt Q14789) |  | inactive: 0.04 |  |  | inactive: -0.029 |  |  |  |  |  |  |  |  | inactive: 0.084 |  |  |  |  |  |  |
| GNPTAB (UniProt Q3T906) | inactive: -0.103 | inactive: -0.028 | inactive: 0.019 |  | inactive: 0.151 |  |  | inactive: -0.115 |  | inactive: 0.028 |  | inactive: -0.066 | inactive: -0.083 | inactive: -0.062 | inactive: 0.023 |  | inactive: 0.001 | inactive: 0.085 | inactive: -0.065 | inactive: 0.18 |
| GOSR1 (UniProt E9PCW1) | inactive: -0.073 | inactive: 0.076 |  |  | inactive: -0.071 |  |  | inactive: 0.028 |  | inactive: -0.018 |  | inactive: 0.024 | inactive: -0.183 | inactive: 0.062 | inactive: -0.011 |  | inactive: -0.16 | inactive: 0.034 | inactive: -0.028 | inactive: -0.196 |
| GGACT (UniProt Q9BVM4) | inactive: 0.043 | inactive: -0.029 | inactive: -0.013 | inactive: 0.044 | inactive: -0.147 | inactive: 0.131 | inactive: -0.102 |  | inactive: 0.016 |  | inactive: -0.029 | inactive: 0.017 | inactive: -0.054 | inactive: -0.013 | inactive: 0.041 | inactive: 0.058 | inactive: 0 | inactive: -0.072 | inactive: 0.026 | inactive: 0.016 |
| GMEB1 isoform 2 (UniProt Q9Y692) |  | inactive: -0.041 |  |  |  |  |  | inactive: -0.063 |  | inactive: -0.124 |  | inactive: 0.146 |  |  |  |  | inactive: 0.025 |  |  |  |
| GLMP (UniProt Q8WWB7) |  | inactive: -0.02 | inactive: -0.093 | inactive: -0.13 | inactive: -0.276 | inactive: 0.122 | inactive: -0.177 | inactive: 0.065 |  | inactive: -0.039 |  | inactive: -0.062 |  | inactive: -0.063 |  | inactive: -0.193 | inactive: 0.168 |  |  |  |
| GNG12 (UniProt Q9UBI6) | inactive: 0.043 |  |  | inactive: 0.068 |  |  |  | inactive: 0.096 |  | inactive: -0.08 |  |  | inactive: 0.09 |  | inactive: -0.024 |  |  | inactive: -0.04 |  |  |
| GIPC3 (UniProt Q8TF64) | inactive: -0.108 | inactive: -0.071 | inactive: 0.055 |  | inactive: -0.157 | inactive: 0.028 | inactive: 0.05 | inactive: -0.194 | inactive: 0.008 | inactive: 0.073 | inactive: 0.157 | inactive: -0.103 | inactive: -0.033 | inactive: 0.05 | inactive: 0.124 | inactive: -0.097 | inactive: 0 | inactive: 0.083 | inactive: -0.055 | inactive: -0.035 |
| GPN1 isoform 5 (UniProt Q9HCN4) | inactive: -0.001 | inactive: 0.052 | inactive: 0.094 | inactive: 0.047 | inactive: 0.064 | inactive: -0.023 | inactive: -0.057 | inactive: 0.013 | inactive: 0.034 | inactive: -0.012 | inactive: 0.004 | inactive: -0.002 | inactive: -0.072 | inactive: 0.023 | inactive: 0.038 | inactive: -0.002 | inactive: -0.019 | inactive: 0.022 | inactive: -0.007 | inactive: 0.027 |
| GPR180 (UniProt Q86V85) |  |  |  |  |  |  |  |  |  |  |  | inactive: -0.17 |  |  |  |  | inactive: -0.007 |  |  |  |
| GPRC5C isoform 2 (UniProt Q9NQ84) | inactive: -0.127 |  |  |  |  |  |  |  |  |  |  |  | inactive: -0.046 |  | inactive: -0.132 |  |  | inactive: 0.036 |  |  |
| GPATCH3 (UniProt Q96I76) | inactive: 0.052 | inactive: 0.013 | inactive: 0.089 |  |  |  |  |  |  |  |  | inactive: -0.092 | inactive: 0.076 |  | inactive: -0.088 |  | inactive: -0.043 | inactive: -0.268 |  |  |
| GLTP (UniProt Q9NZD2) | inactive: 0.086 | inactive: 0.013 | inactive: -0.013 | inactive: 0.048 | inactive: -0.035 | inactive: -0.021 | inactive: -0.068 |  | inactive: 0.026 |  | inactive: 0.071 | inactive: -0.108 | inactive: 0.089 | inactive: -0.069 | inactive: -0.158 | inactive: 0.058 | inactive: -0.054 | inactive: -0.166 | inactive: -0.039 | inactive: 0.05 |
| GNAS isoform 2 (UniProt Q5JWF2) |  |  |  |  |  |  |  |  |  |  |  |  |  |  |  |  |  |  | inactive: -0.019 | inactive: -0.005 |
| GNB4 (UniProt Q9HAV0) | inactive: -0.114 | inactive: -0.002 | inactive: -0.091 |  | inactive: 0.01 | inactive: -0.01 | inactive: 0.141 | inactive: -0.168 | inactive: 0.095 | active: -0.364 | inactive: 0.031 | inactive: 0.106 | inactive: -0.058 | inactive: 0.015 | inactive: 0.094 | inactive: -0.028 | inactive: 0.171 | inactive: 0.074 | inactive: -0.031 | inactive: -0.033 |
| GNA12 (UniProt Q03113) |  | inactive: 0.075 |  | inactive: -0.31 | inactive: 0.128 | inactive: -0.122 | inactive: 0.001 |  | inactive: 0.058 |  | inactive: -0.41 | inactive: -0.133 |  | inactive: -0.016 |  | inactive: 0.205 | inactive: 0.192 |  | inactive: 0.038 | inactive: -0.562 |
| GLDC (UniProt P23378) |  |  |  |  |  |  |  |  |  |  |  |  |  |  |  |  |  |  | inactive: 0.112 | inactive: 0.301 |

For convenience, some entries already given.

| Target | log2 fold change (alvocidib) | log2 fold change (Tubastatin A) | log2 fold change [1] | log2 fold change (defactinib) | log2 fold change [2] | log2 fold change (encorafenib) | log2 fold change [3] | log2 fold change (alisertib) | log2 fold change [4] | log2 fold change (gefitinib) | log2 fold change (lapatinib) | log2 fold change (crizotinib) | log2 fold change [5] | log2 fold change (duvelisib) | log2 fold change (gandotinib) | log2 fold change (tozasertib) | log2 fold change (doramapimod) | log2 fold change [6] | log2 fold change (pictilisib) | log2 fold change (bafetinib) |
| --- | --- | --- | --- | --- | --- | --- | --- | --- | --- | --- | --- | --- | --- | --- | --- | --- | --- | --- | --- | --- |
| GNA12 (UniProt Q03113) |  | inactive: 0.075 |  | inactive: -0.31 | inactive: 0.128 | inactive: -0.122 | inactive: 0.001 |  | inactive: 0.058 |  | inactive: -0.41 | inactive: -0.133 |  | inactive: -0.016 |  | inactive: 0.205 | inactive: 0.192 |  | inactive: 0.038 | inactive: -0.562 |
| GLDC (UniProt P23378) |  |  |  |  |  |  |  |  |  |  |  |  |  |  |  |  |  |  | inactive: 0.112 | inactive: 0.301 |
